Assay results from article PMC7364817.
No constants are given. Whether binding was seen depends on the method and setting. In cells and extracts the contact can be indirect. A yes stands for co-enrichment or nearness to the bait. Other partners may have been found. Sequences can lack the tags named with a protein.

T1: FLAG-tagged SMCR8 (Smith-Magenis Syndrome Chromosome Region, Candidate 8) (UniProt Q8TEV9)
T1 sequence: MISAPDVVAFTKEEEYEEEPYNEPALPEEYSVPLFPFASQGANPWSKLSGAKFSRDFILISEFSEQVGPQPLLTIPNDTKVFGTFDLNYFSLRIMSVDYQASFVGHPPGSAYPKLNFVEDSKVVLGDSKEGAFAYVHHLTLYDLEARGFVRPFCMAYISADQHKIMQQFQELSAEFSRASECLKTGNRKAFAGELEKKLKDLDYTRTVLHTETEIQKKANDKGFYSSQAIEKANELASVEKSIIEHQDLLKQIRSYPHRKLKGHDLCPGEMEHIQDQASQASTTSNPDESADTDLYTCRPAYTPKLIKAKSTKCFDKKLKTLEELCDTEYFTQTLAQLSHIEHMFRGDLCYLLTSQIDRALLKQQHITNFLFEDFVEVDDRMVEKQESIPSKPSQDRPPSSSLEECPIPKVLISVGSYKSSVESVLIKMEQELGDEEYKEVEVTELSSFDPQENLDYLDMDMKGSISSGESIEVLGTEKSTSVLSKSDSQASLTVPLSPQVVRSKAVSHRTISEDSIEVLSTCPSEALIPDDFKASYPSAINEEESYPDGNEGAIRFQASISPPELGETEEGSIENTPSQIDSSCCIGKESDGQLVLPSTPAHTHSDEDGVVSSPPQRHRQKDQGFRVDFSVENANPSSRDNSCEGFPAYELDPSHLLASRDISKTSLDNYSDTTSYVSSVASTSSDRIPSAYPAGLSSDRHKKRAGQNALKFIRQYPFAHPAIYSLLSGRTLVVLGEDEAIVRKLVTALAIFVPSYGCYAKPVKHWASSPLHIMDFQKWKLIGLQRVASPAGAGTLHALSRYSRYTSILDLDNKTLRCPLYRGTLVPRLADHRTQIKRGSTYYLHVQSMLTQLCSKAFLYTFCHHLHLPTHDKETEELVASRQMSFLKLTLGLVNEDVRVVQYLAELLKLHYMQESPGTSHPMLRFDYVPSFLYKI

B1: ubiquitin specific peptidase 15 (protein, UniProt Q9Y4E8 1-981)
chain: MAEGGAADLDTQRSDIATLLKTSLRKGDTWYLVDSRWFKQWKKYVGFDSWDKYQMGDQNVYPGPIDNSGLLKDGDAQSLKEHLIDELDYILLPTEGWNKLVSWYTLMEGQEPIARKVVEQGMFVKHCKVEVYLTELKLCENGNMNNVVTRRFSKADTIDTIEKEIRKIFSIPDEKETRLWNKYMSNTFEPLNKPDSTIQDAGLYQGQVLVIEQKNEDGTWPRGPSTPKSPGASNFSTLPKISPSSLSNNYNNMNNRNVKNSNYCLPSYTAYKNYDYSEPGRNNEQPGLCGLSNLGNTCFMNSAIQCLSNTPPLTEYFLNDKYQEELNFDNPLGMRGEIAKSYAELIKQMWSGKFSYVTPRAFKTQVGRFAPQFSGYQQQDCQELLAFLLDGLHEDLNRIRKKPYIQLKDADGRPDKVVAEEAWENHLKRNDSIIVDIFHGLFKSTLVCPECAKISVTFDPFCYLTLPLPMKKERTLEVYLVRMDPLTKPMQYKVVVPKIGNILDLCTALSALSGIPADKMIVTDIYNHRFHRIFAMDENLSSIMERDDIYVFEININRTEDTEHVIIPVCLREKFRHSSYTHHTGSSLFGQPFLMAVPRNNTEDKLYNLLLLRMCRYVKISTETEETEGSLHCCKDQNINGNGPNGIHEEGSPSEMETDEPDDESSQDQELPSENENSQSEDSVGGDNDSENGLCTEDTCKGQLTGHKKRLFTFQFNNLGNTDINYIKDDTRHIRFDDRQLRLDERSFLALDWDPDLKKRYFDENAAEDFEKHESVEYKPPKKPFVKLKDCIELFTTKEKLGAEDPWYCPNCKEHQQATKKLDLWSLPPVLVVHLKRFSYSRYMRDKLDTLVDFPINDLDMSEFLINPNAGPCRYNLIAVSNHYGGMGGGHYTAFAKNKDDGKWYYFDDSSVSTASEDQIVSKAAYVLFYQRQDTFSGTGFFPLDRETKGASAATGIPLESDEDSNDNDNDIENENCMHTN
B2: makorin ring finger protein 2, E3 ubiquitin ligase (protein, UniProt Q9H000 1-416)
chain: MSTKQITCRYFMHGVCREGSQCLFSHDLANSKPSTICKYYQKGYCAYGTRCRYDHTRPSAAAGGAVGTMAHSVPSPAFHSPHPPSEVTASIVKTNSHEPGKREKRTLVLRDRNLSGMAERKTQPSMVSNPGSCSDPQPSPEMKPHSYLDAIRSGLDDVEASSSYSNEQQLCPYAAAGECRFGDACVYLHGEVCEICRLQVLHPFDPEQRKAHEKICMLTFEHEMEKAFAFQASQDKVCSICMEVILEKASASERRFGILSNCNHTYCLSCIRQWRCAKQFENPIIKSCPECRVISEFVIPSVYWVEDQNKKNELIEAFKQGMGKKACKYFEQGKGTCPFGSKCLYRHAYPDGRLAEPEKPRKQLSSQGTVRFFNSVRLWDFIENRESRHVPNNEDVDMTELGDLFMHLSGVESSEP
B3: FIG4 (protein, UniProt Q92562 1-907)
chain: MPTAAAPIISSVQKLVLYETRARYFLVGSNNAETKYRVLKIDRTEPKDLVIIDDRHVYTQQEVRELLGRLDLGNRTKMGQKGSSGLFRAVSAFGVVGFVRFLEGYYIVLITKRRKMADIGGHAIYKVEDTNMIYIPNDSVRVTHPDEARYLRIFQNVDLSSNFYFSYSYDLSHSLQYNLTVLRMPLEMLKSEMTQNRQESFDIFEDEGLITQGGSGVFGICSEPYMKYVWNGELLDIIKSTVHRDWLLYIIHGFCGQSKLLIYGRPVYVTLIARRSSKFAGTRFLKRGANCEGDVANEVETEQILCDASVMSFTAGSYSSYVQVRGSVPLYWSQDISTMMPKPPITLDQADPFAHVAALHFDQMFQRFGSPIIILNLVKEREKRKHERILSEELVAAVTYLNQFLPPEHTIVYIPWDMAKYTKSKLCNVLDRLNVIAESVVKKTGFFVNRPDSYCSILRPDEKWNELGGCVIPTGRLQTGILRTNCVDCLDRTNTAQFMVGKCALAYQLYSLGLIDKPNLQFDTDAVRLFEELYEDHGDTLSLQYGGSQLVHRVKTYRKIAPWTQHSKDIMQTLSRYYSNAFSDADRQDSINLFLGVFHPTEGKPHLWELPTDFYLHHKNTMRLLPTRRSYTYWWTPEVIKHLPLPYDEVICAVNLKKLIVKKFHKYEEEIDIHNEFFRPYELSSFDDTFCLAMTSSARDFMPKTVGIDPSPFTVRKPDETGKSVLGNKSNREEAVLQRKTAASAPPPPSEEAVSSSSEDDSGTDREEEGSVSQRSTPVKMTDAGDSAKVTENVVQPMKELYGINLSDGLSEEDFSIYSRFVQLGQSQHKQDKNSQQPCSRCSDGVIKLTPISAFSQDNIYEVQPPRVDRKSTEIFQAHIQASQGIMQPLGKEDSSMYREYIRNRYL
B4: MATR3 (protein, UniProt P43243 1-847)
chain: MSKSFQQSSLSRDSQGHGRDLSAAGIGLLAAATQSLSMPASLGRMNQGTARLASLMNLGMSSSLNQQGAHSALSSASTSSHNLQSIFNIGSRGPLPLSSQHRGDADQASNILASFGLSARDLDELSRYPEDKITPENLPQILLQLKRRRTEEGPTLSYGRDGRSATREPPYRVPRDDWEEKRHFRRDSFDDRGPSLNPVLDYDHGSRSQESGYYDRMDYEDDRLRDGERCRDDSFFGETSHNYHKFDSEYERMGRGPGPLQERSLFEKKRGAPPSSNIEDFHGLLPKGYPHLCSICDLPVHSNKEWSQHINGASHSRRCQLLLEIYPEWNPDNDTGHTMGDPFMLQQSTNPAPGILGPPPPSFHLGGPAVGPRGNLGAGNGNLQGPRHMQKGRVETSRVVHIMDFQRGKNLRYQLLQLVEPFGVISNHLILNKINEAFIEMATTEDAQAAVDYYTTTPALVFGKPVRVHLSQKYKRIKKPEGKPDQKFDQKQELGRVIHLSNLPHSGYSDSAVLKLAEPYGKIKNYILMRMKSQAFIEMETREDAMAMVDHCLKKALWFQGRCVKVDLSEKYKKLVLRIPNRGIDLLKKDKSRKRSYSPDGKESPSDKKSKTDGSQKTESSTEGKEQEEKSGEDGEKDTKDDQTEQEPNMLLESEDELLVDEEEAAALLESGSSVGDETDLANLGDVASDGKKEPSDKAVKKDGSASAAAKKKLKKVDKIEELDQENEAALENGIKNEENTEPGAESSENADDPNKDTSENADGQSDENKDDYTIPDEYRIGPYQPNVPVGIDYVIPKTGFYCKLCSLFYTNEEVAKNTHCSSLPHYQKLKKFLNKLAEERRQKKET
B5: SPG20 (protein, UniProt Q8N0X7 1-666)
chain: MEQEPQNGEPAEIKIIREAYKKAFLFVNKGLNTDELGQKEEAKNYYKQGIGHLLRGISISSKESEHTGPGWESARQMQQKMKETLQNVRTRLEILEKGLATSLQNDLQEVPKLYPEFPPKDMCEKLPEPQSFSSAPQHAEVNGNTSTPSAGAVAAPASLSLPSQSCPAEAPPAYTPQAAEGHYTVSYGTDSGEFSSVGEEFYRNHSQPPPLETLGLDADELILIPNGVQIFFVNPAGEVSAPSYPGYLRIVRFLDNSLDTVLNRPPGFLQVCDWLYPLVPDRSPVLKCTAGAYMFPDTMLQAAGCFVGVVLSSELPEDDRELFEDLLRQMSDLRLQANWNRAEEENEFQIPGRTRPSSDQLKEASGTDVKQLDQGNKDVRHKGKRGKRAKDTSSEEVNLSHIVPCEPVPEEKPKELPEWSEKVAHNILSGASWVSWGLVKGAEITGKAIQKGASKLRERIQPEEKPVEVSPAVTKGLYIAKQATGGAAKVSQFLVDGVCTVANCVGKELAPHVKKHGSKLVPESLKKDKDGKSPLDGAMVVAASSVQGFSTVWQGLECAAKCIVNNVSAETVQTVRYKYGYNAGEATHHAVDSAVNVGVTAYNINNIGIKAMVKKTATQTGHTLLEDYQIVDNSQRENQEGAANVNVRGEKDEQTKEVKEAKKKDK
B6: ADAR (protein, UniProt P55265 1-1226)
chain: MNPRQGYSLSGYYTHPFQGYEHRQLRYQQPGPGSSPSSFLLKQIEFLKGQLPEAPVIGKQTPSLPPSLPGLRPRFPVLLASSTRGRQVDIRGVPRGVHLRSQGLQRGFQHPSPRGRSLPQRGVDCLSSHFQELSIYQDQEQRILKFLEELGEGKATTAHDLSGKLGTPKKEINRVLYSLAKKGKLQKEAGTPPLWKIAVSTQAWNQHSGVVRPDGHSQGAPNSDPSLEPEDRNSTSVSEDLLEPFIAVSAQAWNQHSGVVRPDSHSQGSPNSDPGLEPEDSNSTSALEDPLEFLDMAEIKEKICDYLFNVSDSSALNLAKNIGLTKARDINAVLIDMERQGDVYRQGTTPPIWHLTDKKRERMQIKRNTNSVPETAPAAIPETKRNAEFLTCNIPTSNASNNMVTTEKVENGQEPVIKLENRQEARPEPARLKPPVHYNGPSKAGYVDFENGQWATDDIPDDLNSIRAAPGEFRAIMEMPSFYSHGLPRCSPYKKLTECQLKNPISGLLEYAQFASQTCEFNMIEQSGPPHEPRFKFQVVINGREFPPAEAGSKKVAKQDAAMKAMTILLEEAKAKDSGKSEESSHYSTEKESEKTAESQTPTPSATSFFSGKSPVTTLLECMHKLGNSCEFRLLSKEGPAHEPKFQYCVAVGAQTFPSVSAPSKKVAKQMAAEEAMKALHGEATNSMASDNQPEGMISESLDNLESMMPNKVRKIGELVRYLNTNPVGGLLEYARSHGFAAEFKLVDQSGPPHEPKFVYQAKVGGRWFPAVCAHSKKQGKQEAADAALRVLIGENEKAERMGFTEVTPVTGASLRRTMLLLSRSPEAQPKTLPLTGSTFHDQIAMLSHRCFNTLTNSFQPSLLGRKILAAIIMKKDSEDMGVVVSLGTGNRCVKGDSLSLKGETVNDCHAEIISRRGFIRFLYSELMKYNSQTAKDSIFEPAKGGEKLQIKKTVSFHLYISTAPCGDGALFDKSCSDRAMESTESRHYPVFENPKQGKLRTKVENGEGTIPVESSDIVPTWDGIRLGERLRTMSCSDKILRWNVLGLQGALLTHFLQPIYLKSVTLGYLFSQGHLTRAICCRVTRDGSAFEDGLRHPFIVNHPKVGRVSIYDSKRQSGKTKETSVNWCLADGYDLEILDGTRGTVDGPRNELSRVSKKNIFLLFKKLCSFRYRRDLLRLSYGEAKKAARDYETAKNYFKKGLKDMGYGNWISKPQEEKNFYLCPV

Target: T1, FLAG-tagged SMCR8 (Smith-Magenis Syndrome Chromosome Region, Candidate 8)
Assay: affinity purification with mass spectrometry; FL-SMCR8, C9orf72-FL or empty vector transfected in HEK 293T; α-FLAG agarose IP from whole cell lysates with or without RNase; LC-MS/MS; hits with three or more spectra and not detected in vector only control

| Binder | binding |
| --- | --- |
| B1 | binds |
| B2 | binds |
| B3 | binds |
| B4 | binds |
| B5 | binds |
| B6 | binds |
